According to US11834460B2, “Imide-based modulators of proteolysis and associated methods of use” (YALE UNIVERSITY, priority 2018, dated 2023):
pIC50: −log10 of the molar value. Some entries share one result that the patent states for a list of compounds.

Tested on: c-Myc
Assay: c-Myc ELISA assay protocol in 22RV-1 cells
Format: cell-based, human
Details: 18 h, read-out: cMyc IC50
Description: In each bioassay, cells were treated with varying amounts of compounds encompassed by the present disclosure, as shown in Table 1. The degradation of the following proteins were evaluated in this study: TANK-binding kinase 1 (TBK1), estrogen receptor α (ERα), bromodomain-containing protein 4 (BRD4), androgen receptor (AR), and c-Myc.
5. c-Myc ELISA Assay Protocol
22RV-1 cells were purchased from ATCC and cultured in RPMI+10% FBS media. Cells were harvested using trypsin (Gibco #25200-114), counted and seeded at 30,000 cells/well at a volume of 75 μL/well in RPMI +10% FBS media in 96-well plates. The cells were dosed with compounds diluted in 0.1% DMSO, incubated for 18 h then washed and lysed in 50 uL RIPA buffer (50 mM Tris pH8, 150 mM NaCl, 1% Tx-100, 0.1% SDS, 0.5% sodium deoxycholate) supplemented with protease and phosphatase inhibitors. The lysates were clarified at 4000 rpm at 4° C. for 10 minutes then aliquots were added into a 96-well ELISA plate of Novex Human c-myc ELISA kit from Life Technologies Catalog #KHO2041. 50 ul of c-Myc Detection antibody was added into every well, the plates incubated at room temperature for 3 hrs, then washed with ELISA wash buffer. […] The plates were washed with ELISA wash buffer, 100 μL TMB added to each well, and then monitored every 5 minutes for a color change. 100 μL of stop solution is added and the plates read at 450 nm.

Cc1sc2c(c1C)C(c1ccc(Cl)cc1)=N[C@@H](CC(=O)N[C@@H](C)c1ccc(OCCOCCNc3cccc4c3C(=O)N(C3CCC(=O)NC3=O)C4=O)cc1)c1nnc(C)n1-2 (stereo partly drawn) [Compound 26, 2-((9S)-7-(4-chlorophenyl)-4,5, 13-trimethyl-3-thia-1,8,11,12-tetraazatricyclo [8.3.0.02,6]trideca-2(6),4,7,10,12-pentaen-9-yl)-N-((1S)-1-(4-(2-(2-((2-(2,6-dioxopiperidin-3-yl)-1,3-dioxo-2,3-dihydro-1H-isoindol-4-yl)amino)ethoxy)ethoxy)phenyl)ethyl)acetamide]
pIC50: > 7.30
